Source: patent US7417072B2, “Blockade of Pin1 prevents cytokine production by activated immune cells” (Wisconsin Alumni Research Foundation, priority 2005, dated 2008)
Entries after “also recorded” stand apart in the source; their conditions may differ. For at least one compound, name, drawing or mass did not settle the structure.

Legend:
[1] = test system: cytokine expression and immune cells of transplant recipients; experiment: Immunologic analysis of lung transplant recipients (blood, spleen, BAL, lung, mediastinal lymph nodes); settings: splenocytes of juglone treated recipients
rat splenocytes = experiment: BrdU incorporation in activated splenocytes; format: cell-based; settings: juglone 1 μM, despite exogenous IL-2
eosinophils (Eos) = experiment: Eosinophil survival, cell viability at day 4; format: cell-based, human; settings: rhGM-CSF 100 pg/ml, juglone 0.1 μM, TAT-ww-Pin1 160 nM

Structure (SMILES): O=C1C=CC(=O)c2c(O)cccc21 [juglone]
- IFN-γ production by activated spleen cells, ELISPOT [1]: significantly reduced; also recorded: significantly fewer
- DNA synthesis (BrdU incorporation) (rat splenocytes): effectively suppressed DNA synthesis
- Eos survival/apoptosis with added rhGM-CSF (eosinophils (Eos)): GM-CSF was able to antagonize the apoptosis-promoting effects
